Assay results reported in PMC4357729.
These are yes or no findings as the source states them, for the method shown. In cells and extracts the contact can be indirect. Some results given as binding are weak or reduced against the parent protein; the word gives no strength.

Chains of the proteins cited; added tags and fusions are not shown.
UniProt Q9UKV8: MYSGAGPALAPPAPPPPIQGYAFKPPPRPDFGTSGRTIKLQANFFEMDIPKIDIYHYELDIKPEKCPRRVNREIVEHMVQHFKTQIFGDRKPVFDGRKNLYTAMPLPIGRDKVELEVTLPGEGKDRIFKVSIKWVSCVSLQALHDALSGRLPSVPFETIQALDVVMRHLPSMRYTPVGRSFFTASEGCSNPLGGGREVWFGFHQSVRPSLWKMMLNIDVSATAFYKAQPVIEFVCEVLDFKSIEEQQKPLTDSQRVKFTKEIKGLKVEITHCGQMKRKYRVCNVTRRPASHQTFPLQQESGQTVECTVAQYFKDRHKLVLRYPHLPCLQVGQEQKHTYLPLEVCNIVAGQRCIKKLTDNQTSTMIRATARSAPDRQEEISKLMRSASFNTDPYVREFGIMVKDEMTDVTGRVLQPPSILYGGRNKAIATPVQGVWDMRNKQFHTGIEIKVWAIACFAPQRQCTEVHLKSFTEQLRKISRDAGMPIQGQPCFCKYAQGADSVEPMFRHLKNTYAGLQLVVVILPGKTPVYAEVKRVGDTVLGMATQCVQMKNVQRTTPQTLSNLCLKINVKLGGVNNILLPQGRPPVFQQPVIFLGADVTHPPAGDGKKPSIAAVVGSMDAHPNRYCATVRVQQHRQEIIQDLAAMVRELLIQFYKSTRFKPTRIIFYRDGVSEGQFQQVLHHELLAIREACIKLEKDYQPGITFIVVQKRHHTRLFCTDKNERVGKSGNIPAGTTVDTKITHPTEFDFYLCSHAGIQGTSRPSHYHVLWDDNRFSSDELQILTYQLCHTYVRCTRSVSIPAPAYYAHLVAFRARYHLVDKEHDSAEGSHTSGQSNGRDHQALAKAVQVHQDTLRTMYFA
UniProt Q80U78: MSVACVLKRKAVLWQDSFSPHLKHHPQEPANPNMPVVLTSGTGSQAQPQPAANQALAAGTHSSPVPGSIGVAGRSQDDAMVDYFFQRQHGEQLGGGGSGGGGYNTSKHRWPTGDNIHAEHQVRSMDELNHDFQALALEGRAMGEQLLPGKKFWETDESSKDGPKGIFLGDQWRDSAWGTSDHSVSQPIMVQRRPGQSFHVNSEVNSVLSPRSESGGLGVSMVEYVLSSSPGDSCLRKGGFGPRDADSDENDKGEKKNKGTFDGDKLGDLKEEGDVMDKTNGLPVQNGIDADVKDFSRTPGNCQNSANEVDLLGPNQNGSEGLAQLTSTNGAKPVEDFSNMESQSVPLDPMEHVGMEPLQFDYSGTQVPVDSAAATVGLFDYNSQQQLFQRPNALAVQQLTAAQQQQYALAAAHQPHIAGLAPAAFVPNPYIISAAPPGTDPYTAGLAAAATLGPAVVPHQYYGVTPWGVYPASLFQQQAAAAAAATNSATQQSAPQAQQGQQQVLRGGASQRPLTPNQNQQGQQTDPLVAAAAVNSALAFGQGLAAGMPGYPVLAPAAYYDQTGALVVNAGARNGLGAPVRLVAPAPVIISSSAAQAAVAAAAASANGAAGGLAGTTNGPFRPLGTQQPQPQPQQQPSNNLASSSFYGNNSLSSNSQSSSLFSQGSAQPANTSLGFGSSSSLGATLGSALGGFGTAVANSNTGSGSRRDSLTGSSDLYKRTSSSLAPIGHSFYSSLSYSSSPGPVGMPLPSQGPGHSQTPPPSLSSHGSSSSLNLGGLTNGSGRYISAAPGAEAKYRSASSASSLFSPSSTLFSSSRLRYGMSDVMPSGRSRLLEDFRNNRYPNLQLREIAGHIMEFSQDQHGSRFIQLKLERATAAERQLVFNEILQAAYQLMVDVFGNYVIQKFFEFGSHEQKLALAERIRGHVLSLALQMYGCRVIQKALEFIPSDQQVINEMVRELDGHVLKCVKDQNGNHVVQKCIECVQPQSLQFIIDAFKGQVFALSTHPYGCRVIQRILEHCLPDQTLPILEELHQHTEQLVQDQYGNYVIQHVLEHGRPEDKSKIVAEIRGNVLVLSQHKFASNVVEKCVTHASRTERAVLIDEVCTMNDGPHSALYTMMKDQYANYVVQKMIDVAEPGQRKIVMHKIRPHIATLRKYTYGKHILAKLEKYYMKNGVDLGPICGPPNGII
UniProt Q13049: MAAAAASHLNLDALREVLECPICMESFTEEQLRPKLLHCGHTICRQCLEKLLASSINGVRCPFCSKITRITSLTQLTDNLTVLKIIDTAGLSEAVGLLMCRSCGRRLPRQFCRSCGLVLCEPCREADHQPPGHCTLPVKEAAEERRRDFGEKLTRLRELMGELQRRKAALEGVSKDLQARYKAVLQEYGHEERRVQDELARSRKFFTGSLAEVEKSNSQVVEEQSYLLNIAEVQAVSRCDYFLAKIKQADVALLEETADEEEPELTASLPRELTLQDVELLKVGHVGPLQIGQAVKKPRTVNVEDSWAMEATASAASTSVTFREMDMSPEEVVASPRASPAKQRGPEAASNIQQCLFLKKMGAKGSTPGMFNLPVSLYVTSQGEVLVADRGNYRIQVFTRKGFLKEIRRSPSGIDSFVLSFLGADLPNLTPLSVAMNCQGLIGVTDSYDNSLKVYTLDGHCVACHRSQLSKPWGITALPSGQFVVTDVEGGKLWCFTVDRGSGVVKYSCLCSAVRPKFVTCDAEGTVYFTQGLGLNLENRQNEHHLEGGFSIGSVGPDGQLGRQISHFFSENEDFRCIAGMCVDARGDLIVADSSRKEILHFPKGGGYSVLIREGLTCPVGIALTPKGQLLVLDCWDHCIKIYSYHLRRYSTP
UniProt Q8CJG0: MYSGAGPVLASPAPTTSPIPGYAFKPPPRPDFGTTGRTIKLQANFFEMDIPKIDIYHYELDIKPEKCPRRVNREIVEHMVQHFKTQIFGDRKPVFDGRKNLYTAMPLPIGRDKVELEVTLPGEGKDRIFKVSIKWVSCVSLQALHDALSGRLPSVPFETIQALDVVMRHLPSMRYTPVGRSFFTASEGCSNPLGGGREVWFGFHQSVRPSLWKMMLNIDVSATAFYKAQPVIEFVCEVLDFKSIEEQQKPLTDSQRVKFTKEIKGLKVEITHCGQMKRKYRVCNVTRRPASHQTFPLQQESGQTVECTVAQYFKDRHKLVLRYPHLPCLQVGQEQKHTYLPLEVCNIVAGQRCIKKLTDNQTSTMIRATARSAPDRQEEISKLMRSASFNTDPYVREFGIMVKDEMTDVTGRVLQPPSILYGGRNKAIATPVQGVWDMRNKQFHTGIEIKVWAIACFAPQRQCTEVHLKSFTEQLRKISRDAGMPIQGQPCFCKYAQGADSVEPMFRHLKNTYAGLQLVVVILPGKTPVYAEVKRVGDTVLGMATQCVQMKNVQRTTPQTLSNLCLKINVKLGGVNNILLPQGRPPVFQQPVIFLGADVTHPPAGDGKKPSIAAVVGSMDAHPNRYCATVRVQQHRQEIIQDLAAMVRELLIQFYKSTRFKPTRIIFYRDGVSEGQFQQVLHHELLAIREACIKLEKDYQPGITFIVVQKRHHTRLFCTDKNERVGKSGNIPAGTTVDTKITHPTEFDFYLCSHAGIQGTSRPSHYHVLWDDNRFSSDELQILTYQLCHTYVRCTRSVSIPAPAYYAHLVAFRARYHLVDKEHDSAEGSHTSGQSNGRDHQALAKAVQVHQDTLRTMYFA

Columns and labels:
[1] = biological target: FLAG-tagged Ago1 (UniProt Q9UL18); test: co-IP; HEK293T cells lysed 48 h after transfection (2% Triton X-100 in PBS); anti-FLAG antibody, protein-G agarose; western blot
[2] = biological target: DDX6-Venus-FLAG (UniProt P26196); test: as above
[3] = biological target: FLAG-tagged Ago3 (UniProt Q9H9G7); test: as above
[4] = biological target: FLAG-tagged Ago2 (UniProt Q9UKV8); test: as above
[5] = biological target: DDX6-Venus-FLAG (UniProt P26196); test: co-IP; as the co-IPs from transfected HEK293T cells, with digestion of RNA by micrococcal nuclease (600 U, 1 mM CaCl2, 10 min RT) or RNAse A (10 ug, 30 min, 4°C)
[6] = biological target: FLAG-tagged Ago2 (UniProt Q9UKV8); test: as above
[7] = biological target: Pumilio 1 (endogenous, mouse) (mouse (endogenous in NSCs and brain)) (UniProt Q80U78); test: co-IP; in vivo (mouse brain lysates); which lysate and which precipitating antibody are not told in the text (Supplementary Figure S3d and e)
[8] = biological target: T1, RNA helicase DDX6 (endogenous, mouse) (mouse (endogenous in NSCs and brain)) (UniProt P54823); test: co-IP; E10.5-E14.5 mouse embryonic brain lysate (2% Triton X-100 in PBS with 120 ug/ml RNAse A and 6 ug/ml DNAse); IP with anti-DDX6, anti-GFP as negative control; beads pre-blocked with BSA; western blot
T1 sequence: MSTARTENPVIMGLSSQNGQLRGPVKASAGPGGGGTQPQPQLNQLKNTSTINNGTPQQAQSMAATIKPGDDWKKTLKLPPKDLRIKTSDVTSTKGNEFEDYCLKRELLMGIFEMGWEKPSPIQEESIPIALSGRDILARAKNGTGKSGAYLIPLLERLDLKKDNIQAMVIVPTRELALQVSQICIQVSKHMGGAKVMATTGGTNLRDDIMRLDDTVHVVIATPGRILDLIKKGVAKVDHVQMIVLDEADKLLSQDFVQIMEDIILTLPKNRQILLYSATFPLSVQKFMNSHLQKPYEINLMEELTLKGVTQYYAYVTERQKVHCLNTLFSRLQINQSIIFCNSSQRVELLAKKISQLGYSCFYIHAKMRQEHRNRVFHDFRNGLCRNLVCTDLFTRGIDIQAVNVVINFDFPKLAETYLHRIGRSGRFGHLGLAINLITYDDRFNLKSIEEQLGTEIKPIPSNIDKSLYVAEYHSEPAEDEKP

[9] = biological target: T1, RNA helicase DDX6 (endogenous, mouse) (mouse (endogenous in NSCs and brain)); test: co-IP; adult mouse brain lysate (2% Triton X-100 in PBS with 120 ug/ml RNAse A and 6 ug/ml DNAse); IP with anti-DDX6 or anti-Ago2, anti-GFP as negative control; western blot

binding [1] | binding [2] | binding [3] | binding [4] | binding [5] | binding [6] | binding [7] | binding [8] | binding [9] | Substance
binds | binds | binds | binds | binds | binds |  |  |  | TRIM32 (in the co-immunoprecipitations from transfected HEK293T cells) (from UniProt Q13049 1-653)
 |  |  |  |  |  | binds | binds | binds | Argonaute 2 (endogenous, mouse) (from UniProt Q8CJG0 1-860)
